Source: patent publication US20190382850A1, “METHOD FOR IDENTIFYING MITOCHONDRIAL DNA IN EXTRACELLULAR VESICLES AND TREATMENT OF MTDNA-RELATED DISORDERS AND CANCER” (Memorial Sloan-Kettering Cancer Center, priority 2017, published 2019)
For at least one compound, name, drawing or mass did not settle the structure.

Columns and labels:
[1] = system: mu-mtDNAhi HTR cells; experiment: Proliferation in presence of OXPHOS inhibitors ± HT; type: cell-based, human; conditions: with and without fulvestrant; atovaquone 1 μM, rotenone 100 nM, oligomycin 200 nM; FIG. 2f, 8e
Source text: (Panel a) Representative tumor growth kinetics (BLI) of GFP+/Luciferase+MCF7 xenografts (n=10) treated with weekly fulvestrant once mammary fat pad tumors were established (after 3 months) which led to a period (4 months) of disease stability on HT (HTS) followed by exponential growth on HT (HTR). Representative H&E images of tumors and primary cultures from unsorted as well as FACS purified cancer cells (GFP+/Epcam+) and murine CAFs (GFP−/Epcam). Scale bar 20 μm. (Panel b) OXPHOS potential in tumor-derived cancer cells (panel a) was measured±HT (fulvestrant, 10 μM) by Seahorse. […] (Panel d) Percentage of metastatic lesions isolated by FACS from tumor-bearing mice (n=8/group) expressing murine mtDNA as determined by ND1 qPCR (2 ng of total DNA). Oxygen consumption rates (OCR) in murine-mtDNApos and ctrl HTR cells determined by Seahorse. (Panel e) Murine mitochondrial RNA expression (12 genes: ND1, ND2, COX2, ATP8, ATP6, COX3, ND3, ND4L, ND4, ND5, ND6, CytB) as fold change (logioscale) determined by qRT-PCR in HTR and HTS cells (panel a). […]
FIG. 8 reports that OXPHOS inhibition abrogates HTR disease. (Panel a), Proliferation potential as determined by in vitro cell growth (CalceinAM) in luminal (ER+) and triple negative cancer cell lines cultured in media with increasing concentration of glucose. […]

[2] = system: HTS cells; experiment: as above; type: cell-based, human; conditions: with and without fulvestrant
Protocol: FIG. 8 reports that OXPHOS inhibition abrogates HTR disease. (Panel a), Proliferation potential as determined by in vitro cell growth (CalceinAM) in luminal (ER+) and triple negative cancer cell lines cultured in media with increasing concentration of glucose. (Panel b), Oxygen consumption rates (OCR)±oligomycin (200 nM)/rotenone (100 nM) in MCF7 and MDA-MB-231 cells as determined by seahorse technology. (Panel c), Desmin immunohistochemical images of CAFs in HTS/HTR-derived tissues (scale bar 25 μm). (Panel d), Schematic analysis of the generation of metastatic HTR disease in mice. […] Metastatic burden was analyzed by BLI and at necropsy by histological examination (H&E). (Panel e), Proliferation potential in presence of oligomycin (100 nM) and ±HT as determined by in vitro BLI in metastatic cells from HTS and HTR cells FACS purified from xenografts (FIG. 2a). […] (Panel f), mtDNA/nDNA level in circulating EVs from HTR xenografts as determined by copy number (GAPDH, ND1: qPCR Fold change). […]
For immunoblotting assays, cells were lysed in buffer (50 mmol/L Tris at pH 7.5, 150 mmol/L NaCl, 5 μg/mL aprotinin, pepstatin, 1% NP-40, lmmol/L EDTA, 0.25% deoxycholate, and protease inhibitor cocktail tablet, Sigma). […] The enrichment of CAFs in xenografts was determined by desmin immunohistochemistry (IHC) in tumor-derived sections. […]

For `O=C1C(O)=C([C@H]2CC[C@H](c3ccc(Cl)cc3)CC2)C(=O)c2ccccc21` [atovaquone], the “sensitivity of HTR cells to HT (proliferation)” value [1] was “re-sensitized HTR cells to HT” and the “combined effect with HT on cell proliferation and/or cell death of HTS cells” value [2] was “no synergistic effect”.
